The experiment has as its target E. multilocularis PIM kinase EmPim (E. multilocularis). Kind of experiment: two-hybrid; Gal4-based Matchmaker system, S. cerevisiae Gold strain; EmPim in pGBKT7, EmCDC25 in pGADT7; growth on Leu-/Trp-/His- triple dropout (medium stringency) and Leu-/Trp-/Ade-/His- quadruple dropout (high stringency) plates, 30°C, 48-72 h; growth on quadruple dropout plates quantified as gray value.

Results are given in words; binding and its absence hold for the method and conditions named. A result given as binding can be weak or reduced; the word gives no strength.

As for “E. multilocularis CDC25 phosphatase EmCDC25 (from UniProt A0A068XY79) (enzyme)”, the binding entry is “binds”.
